Results are given in words; binding and its absence hold for the method and conditions named. For some of these results: In cells and extracts the contact can be indirect. Some results given as binding are weak or reduced against the parent protein; the word gives no strength. Blank lines part the entries; values can stand above or below the binder they belong to.
What was measured:
[1] = target: T1, soluble guanylyl cyclase alpha 1 (sGCα1) (UniProt Q02108); assay: immunocytochemistry and streptavidin-agarose pull-down with Peptide A-8R-Biotin, LNCaP cells or extract (figure legend)
T1 sequence (looked up): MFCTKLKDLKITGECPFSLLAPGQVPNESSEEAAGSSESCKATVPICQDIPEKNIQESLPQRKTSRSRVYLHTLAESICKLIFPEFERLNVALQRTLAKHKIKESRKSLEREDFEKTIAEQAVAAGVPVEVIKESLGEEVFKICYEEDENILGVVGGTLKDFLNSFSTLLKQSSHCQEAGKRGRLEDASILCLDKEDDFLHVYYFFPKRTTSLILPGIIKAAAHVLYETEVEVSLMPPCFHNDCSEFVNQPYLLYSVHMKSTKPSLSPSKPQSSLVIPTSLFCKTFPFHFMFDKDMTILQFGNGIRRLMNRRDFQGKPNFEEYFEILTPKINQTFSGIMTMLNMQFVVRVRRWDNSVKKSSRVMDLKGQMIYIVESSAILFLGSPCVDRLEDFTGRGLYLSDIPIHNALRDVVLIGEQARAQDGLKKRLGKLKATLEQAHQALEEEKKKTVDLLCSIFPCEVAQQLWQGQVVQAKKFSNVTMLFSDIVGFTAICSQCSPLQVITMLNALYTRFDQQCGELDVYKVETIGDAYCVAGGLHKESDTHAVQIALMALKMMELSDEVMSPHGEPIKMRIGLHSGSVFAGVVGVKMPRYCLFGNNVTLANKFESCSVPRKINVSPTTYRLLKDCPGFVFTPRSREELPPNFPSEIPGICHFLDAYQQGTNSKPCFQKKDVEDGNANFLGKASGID

[2] = target: T1, soluble guanylyl cyclase alpha 1 (sGCα1); assay: streptavidin-agarose pull-down from LNCaP whole cell extract; co-localization by immunocytochemistry is reported in the same paragraph
[3] = target: T1, soluble guanylyl cyclase alpha 1 (sGCα1); assay: heading of the section on the experiments done with Peptide A-8R-Biotin
[4] = target: T1, soluble guanylyl cyclase alpha 1 (sGCα1); assay: competitive binding assay (format and labelled competitor not described at this place)

- binding [1]: binds
- binding [2]: binds
- binding [3]: binds
B1: Peptide A-8R-Biotin (peptide)
peptide: TFCKAFPFHIIRRRRRRRR
modifications: Biotin tag at the C-terminus

- binding [4]: binds
B2: Peptide TF6-8R (peptide)
peptide: TFCKAFRRRRRRRR
modifications: carboxy-terminus capped with an amide moiety (as in Table 2)

From patent US20140088023A1
